Data taken from ChEMBL document CHEMBL3988442, “University of Dundee, Small-Polar-MMV Screening Library” (2021).

By UniProt entry, the sequences of proteins in these tests, tags left out. Residues count along the entry.
UniProt I6X8D2, whole entry: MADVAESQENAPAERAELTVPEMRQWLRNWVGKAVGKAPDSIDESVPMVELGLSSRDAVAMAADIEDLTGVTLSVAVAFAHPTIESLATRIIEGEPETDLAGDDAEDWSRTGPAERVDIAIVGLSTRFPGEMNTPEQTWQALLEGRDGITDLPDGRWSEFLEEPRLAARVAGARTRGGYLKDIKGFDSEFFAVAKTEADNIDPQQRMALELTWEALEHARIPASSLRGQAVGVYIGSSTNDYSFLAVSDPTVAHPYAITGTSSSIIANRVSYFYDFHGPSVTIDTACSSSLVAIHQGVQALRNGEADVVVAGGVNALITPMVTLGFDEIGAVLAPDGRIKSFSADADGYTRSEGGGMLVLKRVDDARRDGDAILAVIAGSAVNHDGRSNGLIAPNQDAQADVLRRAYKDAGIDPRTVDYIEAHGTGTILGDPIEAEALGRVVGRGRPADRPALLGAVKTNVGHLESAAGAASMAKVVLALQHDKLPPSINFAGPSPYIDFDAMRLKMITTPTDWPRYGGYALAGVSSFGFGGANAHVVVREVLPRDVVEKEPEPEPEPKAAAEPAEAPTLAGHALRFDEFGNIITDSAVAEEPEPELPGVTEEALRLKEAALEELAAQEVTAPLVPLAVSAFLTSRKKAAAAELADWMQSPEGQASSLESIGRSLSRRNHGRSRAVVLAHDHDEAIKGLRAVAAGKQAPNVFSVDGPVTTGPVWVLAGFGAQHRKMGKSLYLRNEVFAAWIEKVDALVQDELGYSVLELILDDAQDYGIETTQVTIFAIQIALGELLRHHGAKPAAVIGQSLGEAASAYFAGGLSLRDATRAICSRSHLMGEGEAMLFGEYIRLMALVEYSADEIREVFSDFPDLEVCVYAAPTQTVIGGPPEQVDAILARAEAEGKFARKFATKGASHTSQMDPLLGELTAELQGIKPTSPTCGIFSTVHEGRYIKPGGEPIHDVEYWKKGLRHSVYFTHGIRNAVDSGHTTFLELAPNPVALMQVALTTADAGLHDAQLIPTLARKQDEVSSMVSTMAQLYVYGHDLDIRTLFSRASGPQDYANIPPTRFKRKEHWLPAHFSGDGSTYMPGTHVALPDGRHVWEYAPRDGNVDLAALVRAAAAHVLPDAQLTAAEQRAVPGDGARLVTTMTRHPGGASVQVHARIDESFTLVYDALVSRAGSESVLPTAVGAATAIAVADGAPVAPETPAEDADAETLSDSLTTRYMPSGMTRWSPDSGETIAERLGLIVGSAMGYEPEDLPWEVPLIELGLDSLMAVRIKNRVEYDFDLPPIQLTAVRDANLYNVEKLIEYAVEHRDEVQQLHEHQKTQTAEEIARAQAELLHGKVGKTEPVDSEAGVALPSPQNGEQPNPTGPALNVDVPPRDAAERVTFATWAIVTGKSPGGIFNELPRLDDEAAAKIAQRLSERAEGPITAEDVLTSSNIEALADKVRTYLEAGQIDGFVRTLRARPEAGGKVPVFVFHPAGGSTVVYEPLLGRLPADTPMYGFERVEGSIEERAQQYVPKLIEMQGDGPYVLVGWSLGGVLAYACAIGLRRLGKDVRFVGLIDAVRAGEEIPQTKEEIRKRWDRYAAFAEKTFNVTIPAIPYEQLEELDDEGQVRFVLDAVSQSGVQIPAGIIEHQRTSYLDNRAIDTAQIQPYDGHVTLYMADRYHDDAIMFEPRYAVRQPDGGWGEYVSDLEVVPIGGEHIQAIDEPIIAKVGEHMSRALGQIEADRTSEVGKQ
UniProt Q4DA54, 1-478: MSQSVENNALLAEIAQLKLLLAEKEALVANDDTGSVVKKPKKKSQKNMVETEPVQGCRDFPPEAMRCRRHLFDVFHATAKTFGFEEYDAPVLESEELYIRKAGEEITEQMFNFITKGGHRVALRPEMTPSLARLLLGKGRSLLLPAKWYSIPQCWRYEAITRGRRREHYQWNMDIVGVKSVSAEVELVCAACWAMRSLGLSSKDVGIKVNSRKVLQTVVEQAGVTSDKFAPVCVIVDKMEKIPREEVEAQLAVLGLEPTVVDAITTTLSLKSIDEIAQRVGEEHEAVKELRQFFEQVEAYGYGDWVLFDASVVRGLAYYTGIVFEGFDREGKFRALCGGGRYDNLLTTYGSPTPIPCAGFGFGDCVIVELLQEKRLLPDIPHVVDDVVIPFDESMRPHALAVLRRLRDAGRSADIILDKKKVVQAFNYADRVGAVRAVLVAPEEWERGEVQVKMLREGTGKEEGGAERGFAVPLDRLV
UniProt A4I591, 1-473: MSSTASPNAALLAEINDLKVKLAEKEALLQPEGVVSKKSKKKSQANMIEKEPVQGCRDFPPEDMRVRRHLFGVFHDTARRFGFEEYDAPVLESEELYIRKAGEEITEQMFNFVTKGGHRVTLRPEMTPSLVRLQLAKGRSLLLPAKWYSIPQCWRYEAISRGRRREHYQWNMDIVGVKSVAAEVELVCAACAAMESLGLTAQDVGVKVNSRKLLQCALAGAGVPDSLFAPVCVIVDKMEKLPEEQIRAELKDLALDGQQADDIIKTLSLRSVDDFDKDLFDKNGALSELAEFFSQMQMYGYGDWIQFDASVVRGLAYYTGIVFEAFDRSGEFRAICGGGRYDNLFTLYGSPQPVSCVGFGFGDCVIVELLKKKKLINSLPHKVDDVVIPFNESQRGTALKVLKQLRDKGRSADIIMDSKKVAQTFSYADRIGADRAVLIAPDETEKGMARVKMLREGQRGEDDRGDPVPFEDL

A: 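Enzyme assay of the thioesterase domain of polyketide synthase 13; the read-out is not stated. Target: Polyketide synthase Pks13, Mycobacterium tuberculosis (UniProt I6X8D2). Compounds at 30 µM. The record gives no direction; the compounds picked for IC50 retests had high values, so higher reads as stronger inhibition. About 67,000 compounds were tested under these conditions; 0.46% (about 300) showed 50% or more at least once.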
B: 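Enzyme assay of histidyl-tRNA synthetase; the read-out is not stated. Target: Histidine-tRNA ligase, Trypanosoma cruzi CL Brener (UniProt Q4DA54). Compounds at 30 µM. Direction is inferred from retests: higher values go with stronger inhibition. About 69,000 compounds were tested under these conditions; 0.045% (about 31) showed 50% or more at least once.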
C: 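Histidine-tRNA ligase, Leishmania infantum (UniProt A4I591). Enzyme assay of histidyl-tRNA synthetase; the read-out is not stated. Tested at 30 µM. Higher reads as stronger inhibition (inferred: compounds with an IC50 in retests scored well above the rest). The assay is labelled LdHisRS but filed under L. infantum. About 69,000 compounds were tested under these conditions; 0.6% (about 410) showed 50% or more at least once.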

Results are given as percent effect.
The controls that fix the scale are not given in the record; negative values are as filed.
Compounds were drawn at random from those tested, without regard to their results.

For COc1ccc(C(C)NCc2ccnn2C)cc1Cn1cccn1 (stereo unspecified) the result was A: -15.27%; B: 6.383%; C: -4.286%. With CCc1nnc(CN(C)C2CCCN(Cc3noc(C4CC4)n3)C2)o1 (stereo unspecified) the screen gave A: -20.8%; B: 2.89%; C: 13.16%. Cc1cc(C)c(CNc2ncnc3c2cnn3C)c(=O)[nH]1 gave A: -8.51%; B: 3.175%; C: 16.44%. CCNC(=O)[C@@H]1C[C@H](NC(=O)c2ccccc2C#N)CN1CCCSC gave A: -21.15%; B: 2.479%; C: 13.33%. For CCC(CO)N(Cc1ccco1)C(=O)c1ccccc1NC (stereo unspecified) the result was A: -25.4%; B: 7.853%; C: 11.83%.

For CSCC1CCCN(c2ncnc3oc(C)nc23)C1 (stereo unspecified) the result was A: -1.833%; B: 5%; C: 16.33%. Cn1cc2c(n1)C(CNC1CCOCC1)OCC2 (stereo unspecified) read A: -28.46%; B: 4.598%; C: 22%. For Cn1ncc2c1C(COCC1CC1)CN(Cc1nccs1)C2 (stereo unspecified) the result was A: -6.719%; B: 6.522%; C: 32.04%. With Cc1cccc(COC2COC3(CCN(S(C)(=O)=O)CC3)C2)n1 (stereo unspecified) the screen gave A: -21.43%; B: 4.598%; C: 24%. CC(C)C(=O)N1C[C@H]2CCCN[C@H]2C1 read A: -32.78%; B: 2.913%; C: 15.53%.

With Cc1nc(C)n(C2CCCN(C(=O)Cc3ccc4c(c3)CCC4)C2)n1 (stereo unspecified) the screen gave A: -16.32%; B: 8.52%; C: 3.529%. Result for CCc1ccc(CN(CC)Cc2ccc(S(=O)(=O)NC)cc2)cc1 was A: -21.94%; B: 1.064%; C: 13.43%. Cc1nnc(N2CCC(CNC(=O)OC(C)(C)C)CC2)c(C#N)c1C read A: -13.31%; B: 3.396%; C: 13.33%. With COCCCNC(=O)N1CCC(CNC(=O)c2cnn(C)c2)CC1 the screen gave A: -17.54%; B: 1.433%; C: 1.754%. CCn1ncc(Nc2[nH]cnc3nncc2-3)c1C read A: -13.43%; B: 3.093%; C: 5.747%.

Cc1cc(C2CCCN(CC(=O)Nc3nc4c(s3)CCC4)C2)n[nH]1 (stereo unspecified) gave A: -8.322%; B: 7.303%; C: 5.128%. Result for Cc1nc(CNC(=O)CCCc2cccs2)no1 was A: -9.561%; B: 9.497%; C: 7.895%. With NCC1(c2cccc(C(F)(F)F)c2)CCCC1 the screen gave A: -1.096%; B: -2.174%; C: 18.18%. Cc1cc(CN(C)C2CCCN(Cc3noc(C4CC4)n3)C2)on1 (stereo unspecified) read A: -16.48%; B: 0.578%; C: 16.67%. For Cc1c2ncn(CC(=O)NC(C)C)c(=O)c2nn1C the result was A: -60.54%; B: 1.587%; C: 26.47%.

For O=C(c1cccnc1SC/C=C/c1ccccc1)N1CCOCC(O)C1 (stereo unspecified) the result was A: -12.93%; B: 5.464%; C: 24.66%. For CCc1nnc(CN2CCN(CC(O)c3ccccc3)CC2)o1 (stereo unspecified) the result was A: -15.67%; B: 4.035%; C: 10.71%. Result for O=C(c1cscn1)N1CCc2c(COCC3CC3)cncc2C1 was A: -16.15%; B: 10.55%; C: 9.901%. Result for Cc1cc(C)c2nc(CN3CCC(CN)C3)cc(O)c2c1 (stereo unspecified) was A: -5.522%; B: 8.163%; C: 16.67%. For COc1c(C)cnc(CN2CCn3c(C)nnc3C2)c1C the result was A: -33.45%; B: 3.571%; C: 19.47%.

O=C(Cc1ccccn1)N1C[C@H]2CCC[C@@]2(COc2ccccn2)C1 gave A: -14.2%; B: 4.132%; C: 7.273%. With COc1ccc(S(=O)(=O)N2CCCC3(CCCN3S(C)(=O)=O)C2)cc1 (stereo unspecified) the screen gave A: -3.758%; B: 3.39%; C: 11.32%. Result for O=C(NCCN1CCCCCC1=O)c1ccn(-c2ccc(F)cc2)n1 was A: -1.306%; B: -3.008%; C: 16.67%. Result for Cc1csc(CN2CCn3c(COc4cccnc4)cnc3C2C)n1 (stereo unspecified) was A: 4.411%; B: 11.56%; C: 23.76%. Result for CN(C)S(=O)(=O)N1CCC[C@]2(C[C@@H](Oc3ccccn3)CO2)C1 was A: -22.02%; B: -5.435%; C: 12.62%.

For c1cc(CN2CCC(Cc3noc(C4CC4)n3)CC2)c2c(c1)OCO2 the result was A: -10%; B: 12.12%; C: 24.47%. With CN(C)C(=O)c1cccc(NC(=O)N2CCCC(C(F)(F)F)C2)c1 (stereo unspecified) the screen gave A: 0.5853%; B: 1.053%; C: 24.66%. O=C(c1ccc(SC(F)F)cc1)N1CCOCC1c1ncon1 (stereo unspecified) gave A: -14.5%; B: -3.158%; C: 8.219%. With CN(C)S(=O)(=O)c1ccc(CN2CCC(C(N)=O)CC2)o1 the screen gave A: -45.62%; B: 3.665%; C: 13.79%. COc1ccc(C(C(=O)O)N2CCC(O)(c3cccnc3)CC2)cc1Cl (stereo unspecified) gave A: -28.18%; B: 3.061%; C: 14.29%.

Result for CC(C(=O)N(C)Cc1nnc2n1CCC2)S(C)(=O)=O (stereo unspecified) was A: -33.04%; B: 5.732%; C: 9.859%. With CCCN(C(=O)c1cnc(C)cn1)c1nc2c(s1)CCc1c-2cnn1C the screen gave A: 29.34%; B: 2.128%; C: 98.96%. With OC1(Cn2ccc3ncccc32)CCN(Cc2cccs2)CC1 the screen gave A: -11.99%; B: 10.64%; C: 15.62%. For CN(Cc1ccccn1)C1COC2(CCN(Cc3nccs3)CC2)C1 (stereo unspecified) the result was A: -4.967%; B: 4.865%; C: 18.87%.

The last 3 entries again:

Compound	A	B	C
CCCN(C(=O)c1cnc(C)cn1)c1nc2c(s1)CCc1c-2cnn1C	29.34	2.128	98.96
OC1(Cn2ccc3ncccc32)CCN(Cc2cccs2)CC1	-11.99	10.64	15.62
CN(Cc1ccccn1)C1COC2(CCN(Cc3nccs3)CC2)C1 (stereo unspecified)	-4.967	4.865	18.87